Laboratory results from PubChem BioAssay AID602313 (National Center for Advancing Translational Sciences (NCATS), 2012).
Out of some 390,000 compounds screened, about 760 (0.19%) were called active. This list was built around the results that the source calls inconclusive (neither active nor inactive); the mix of calls is not that of the screen. The call rests on the fitted dose curve; in most records, active means well fitted inhibition curve with a large enough effect; inconclusive means small, poorly fitted or top-dose-only effect; inactive means flat fitted curve, though single readings scatter. Where the call is inconclusive, the potency comes from a doubtful curve fit.

Assay: qHTS for Inhibitors of Vif-A3F Interactions: qHTS; further: nearly all actives have a fitted effect of over 65% in size
Conditions: HeLa A3F-eYFP + Vif (tagged APOBEC3F with the HIV-1 protein that degrades it), YFP fluorescence increase; series mostly up to 46.1 µM
Summary of the method: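 HeLa cells stably expressing Vif plus C-terminally eYFP-tagged A3F were seeded, incubated overnight at 37 deg C, dosed with compound, incubated overnight again at 37 deg C. Yellow fluorescence (Ex 488/Em 500-530) reported blocked Vif-mediated A3F-eYFP degradation.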
Potency means the concentration at half of the fitted maximal effect.

| SMILES | Potency |
| --- | --- |
| CC(NC(=S)Nc1ccc(OC(F)F)cc1OC(F)F)C(C)(C)C (centres undefined) | inconclusive: 15.8 µM [inhibitor, single point] |
| CC(C)CSc1nc2c(c(=O)[nH]c(=O)n2C)n1CC(O)COc1cccc2ccccc12 (centres undefined) | inactive |
| CC(=O)c1cccc(NC(=O)C(CC(C)C)NS(=O)(=O)c2ccc3c(c2)CCN3C(C)=O)c1 (centres undefined) | inactive |
| CCCCn1c(N)c(N(CCC(C)C)C(=O)c2ccc([N+](=O)[O-])o2)c(=O)[nH]c1=O | active: 10 µM |
| CCOC(=O)c1cnn(-c2ncnc3c2cnn3C)c1N | inconclusive: 5.62 µM [inhibitor, single point] |
| COc1ccc(-c2c[n+]3c4n2CCCCC4=C(c2ccccc2)C3)cc1 | inconclusive: 15.8 µM [inhibitor, single point] |
| Cc1cccc(C(=O)NCc2nnc(SCC(=O)Nc3nncs3)n2C)c1 | inconclusive: 6.31 µM [inhibitor, single point] |
| O=C(CSc1nncc(=O)[nH]1)NCc1ccccc1 | inactive |
| CC1CCCCN1C(C(=O)O)c1ccccc1 (centres undefined) | inconclusive: 3.55 µM [inhibitor, partial curve, poor fit] |
| COc1ccc(NC(=O)CSCC(=O)OCc2cccc(OC)c2OC)cc1 | inconclusive: 35.5 µM [inhibitor, single point] |
| Cc1ccc(C)c(OCCC(=O)OCC(=O)Nc2ccc(C)c(S(=O)(=O)N3CCCCC3)c2)c1 | inconclusive: 2.24 µM [inhibitor, full curve, poor fit] |
| O=C(NCc1ccccc1)c1ccc2c(=O)[nH]c3c(C(=O)NCC4CCCO4)sc(=S)n3c2c1 (centres undefined) | inactive |
| Cc1ccccc1C(=O)OCc1cc(=O)n2nc(C(C)C)sc2n1 | inactive |
| CC(=O)c1cc(-c2ccc(F)cc2)n(CC(=O)NC2CCC(C)CC2)c1C (centres undefined) | inconclusive: 31.6 µM [inhibitor, partial curve, poor fit] |
| COc1ccc(N=c2oc3cc(O)ccc3cc2C(=O)NCC2CCCO2)c(OC)c1 (centres undefined) | inconclusive: 35.5 µM [inhibitor, single point] |
| Cc1cccc(-c2noc(CNC(=O)c3ccoc3C)n2)c1 | inconclusive: 35.5 µM [inhibitor, single point] |
| O=S(=O)(Nc1nc2ccccc2nc1OCC(F)(F)F)c1cccs1 | active: 25.1 µM |
| Cn1c(SCC(=O)Nc2cccc(S(=O)(=O)N3CCOCC3)c2)nnc1-c1ccncc1 | inconclusive: 5.62 µM [inhibitor, single point] |
| CCOc1ccc2oc(C(=O)OCC(=O)NC(=O)NC)c(C)c2c1 | inconclusive: 2.82 µM [inhibitor, single point] |

Two compounds drawn at random from the list so far, as already listed:

| SMILES | Potency |
| --- | --- |
| O=S(=O)(Nc1nc2ccccc2nc1OCC(F)(F)F)c1cccs1 | active: 25.1 µM |
| CC(=O)c1cc(-c2ccc(F)cc2)n(CC(=O)NC2CCC(C)CC2)c1C (centres undefined) | inconclusive: 31.6 µM [inhibitor, partial curve, poor fit] |
